Results are given in words; binding and its absence hold for the method and conditions named. Some entries that bind do so weakly or less than the wild type.

The chains behind the UniProt entries cited, without tags or fusion partners. Residues count along the entry.
UniProt P17879, residues 2-642: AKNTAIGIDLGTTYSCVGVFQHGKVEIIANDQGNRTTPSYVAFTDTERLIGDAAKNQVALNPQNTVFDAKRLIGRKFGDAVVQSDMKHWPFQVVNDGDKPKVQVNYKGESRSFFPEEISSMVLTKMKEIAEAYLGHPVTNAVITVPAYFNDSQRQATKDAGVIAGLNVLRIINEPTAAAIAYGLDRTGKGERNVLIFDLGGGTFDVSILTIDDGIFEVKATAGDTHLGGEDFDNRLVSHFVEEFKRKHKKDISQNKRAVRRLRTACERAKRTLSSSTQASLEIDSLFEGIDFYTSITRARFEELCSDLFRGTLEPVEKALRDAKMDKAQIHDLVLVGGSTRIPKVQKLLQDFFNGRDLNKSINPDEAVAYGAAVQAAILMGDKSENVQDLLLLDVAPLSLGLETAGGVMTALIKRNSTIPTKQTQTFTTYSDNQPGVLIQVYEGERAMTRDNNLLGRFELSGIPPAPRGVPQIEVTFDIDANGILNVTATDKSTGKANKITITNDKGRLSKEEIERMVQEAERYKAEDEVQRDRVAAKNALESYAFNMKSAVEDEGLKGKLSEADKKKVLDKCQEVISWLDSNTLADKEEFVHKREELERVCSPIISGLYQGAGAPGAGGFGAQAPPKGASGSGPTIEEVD

This experiment has as its target HSP70 (mouse, endogenous, from organ tissue of tumor bearing mice or Meth A fibrosarcoma) (mouse) (UniProt P17879). The experiment can be described thus: glutaraldehyde cross-linking of the HOP TPR1 eluate, SDS-PAGE gel shift and Western blot; same cross-linked band, direct partner not resolved.

B1: HIP (mouse, endogenous) (protein, UniProt Q99L47 1-371, looked up)
chain: MDPRKVSELRAFVKMCRQDPSVLHTEEMRFLREWVESMGGKVPPATHKAKSEENTKEEKRDKTTEENIKTEELSSEESDLEIDNEGVIEPDTDAPQEMGDENAEITEEMMDEANEKKGAAIEALNDGELQKAIDLFTDAIKLNPRLAILYAKRASVFVKLQKPNAAIRDCDRAIEINPDSAQPYKWRGKAHRLLGHWEEAAHDLALACKLDYDEDASAMLREVQPRAQKIAEHRRKYERKREEREIKERIERVKKAREEHERAQREEEARRQSGSQYGSFPGGFPGGMPGNFPGGMPGMGGAMPGMAGMAGMPGLNEILSDPEVLAAMQDPEVMVAFQDVAQNPSNMSKYQSNPKVMNLISKLSAKFGGQS
As to B1, the binding result is on record as “binds”.

Source of the values: patent publication US20120100173A1.
